Among all 330,000 compounds or so, about 7,700 (2.3%) were called active. Inconclusive means that the source gave no clear call. Such entries were picked first, then a sample of the others. Calls come from the whole dose curve; as a rule, active = well fitted inhibition curve with a large enough effect; inconclusive = small, poorly fitted or top-dose-only effect, or effect the other way; inactive = flat fitted curve, though single readings scatter. Potencies beside an inconclusive call are fits to weak or partial responses and may not hold up.
Test: qHTS screen for small molecules that inhibit ELG1-dependent DNA repair in human embryonic kidney (HEK293T) cells expressing luciferase-tagged ELG1; note: nearly all actives have a fitted effect of over 55% in size
Details: HEK293T ELG1-luciferase reporter, luminescence, 16 h, DNA damage induced by 5-fluorouridine; activity change, negative = inhibition: at 46.1 µM (top of the series)
Summary of the method: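 Step one: seed 2,000 cells per well. Step two: pin-transfer compound or DMSO alongside 5-fluorouridine. Step three: incubate 16 hr, 37 °C, 5% CO2. Step four: add ONE-Glo, wait 30 min, read luminescence.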
% is set by controls: 0 for no effect and ±100 for the full control effect; potency is the fitted concentration of half-maximal effect.

**Q.** With COc1ccc(Nc2nnc(-c3ccc(C(=O)NCCO)cc3)c3ccccc23)cc1 as the compound, how does the “activity change, negative = inhibition” value read?
**A.** inactive: -20.3%

**Q.** With Cc1nn(-c2ccccc2)c(C)c1/C=C/C(=O)OCC(=O)Nc1ccc(S(N)(=O)=O)cc1 as the compound, how does the Potency read?
**A.** inconclusive: 18.3 µM [inhibitor, single point]

**Q.** Which “activity change, negative = inhibition” value does the source give for Cc1cc2c(c(=O)n1Cc1ccccn1)C(c1ccc3c(c1)OCO3)C(C#N)=C(N)O2 (stereo unspecified) here?
**A.** inactive: -1.16%

**Q.** For O=C(CCSc1ccc(Cl)cc1)N1CCOCC1, which Potency is on record?
**A.** inconclusive: 20.6 µM [activator, partial curve]

**Q.** Which “activity change, negative = inhibition” value does the source give for CC(=O)NC(CC(=O)OCC(=O)c1cc(C)ccc1C)c1ccccc1 (stereo unspecified) here?
**A.** inactive: -1.12%

**Q.** For O=C(NN1CCOCC1)c1ccccc1NS(=O)(=O)c1ccc(F)cc1F, which Potency is on record?
**A.** inconclusive: 32.6 µM [activator, partial curve, poor fit]

**Q.** With O=c1oc(-c2ccccc2)nc2sc3c(c12)CCCC3 as the compound, how does the Potency read?
**A.** inconclusive: 13 µM [activator, partial curve]

**Q.** Which Potency does the source give for CCN1C(Nc2ccccc2)=NC[C@@H]1CC(C)C here?
**A.** inconclusive: 29.1 µM [activator, single point]

**Q.** Which “activity change, negative = inhibition” value does the source give for CCCOc1ccc(-c2c(C(=O)N/N=C/c3ccsc3)nnn2-c2nonc2N)cc1 here?
**A.** inactive: -4.92%

**Q.** With CCOC(=O)CSc1nc2c(sc(=S)n2Cc2ccco2)c(=O)n1-c1ccccc1 as the compound, how does the “activity change, negative = inhibition” value read?
**A.** inactive: -17.7%

**Q.** For CCC(C)N(C(=O)Cn1nnc(-c2ccc(Cl)cc2)n1)C1CCS(=O)(=O)C1 (stereo unspecified), which “activity change, negative = inhibition” value is on record?
**A.** inactive: 16%

**Q.** With COCCN1CSC(=S)N(Cc2ccco2)C1 as the compound, how does the “activity change, negative = inhibition” value read?
**A.** inactive: -20.4%

**Q.** Which “activity change, negative = inhibition” value does the source give for NC(=O)C(=O)N/N=C/c1c(F)c(F)c(F)c(F)c1F here?
**A.** inactive: -7.2%

**Q.** For COc1ccc(C(=O)Nc2ccc(Br)cn2)cc1S(=O)(=O)N1CCOCC1, which Potency is on record?
**A.** inconclusive: 11.2 µM [inhibitor, partial curve]

**Q.** For Cc1ccc(S(=O)(=O)N2CCN(C(=O)c3cccs3)CC2)cc1C, which Potency is on record?
**A.** inconclusive: 29.1 µM [inhibitor, single point]

**Q.** With COc1cc(C=O)ccc1OCCCCOc1ccccc1[N+](=O)[O-] as the compound, how does the “activity change, negative = inhibition” value read?
**A.** inactive: 4.96%

**Q.** For COc1ccc(N=C2SCC(c3ccc([N+](=O)[O-])cc3)=NN2CCO)cc1, which Potency is on record?
**A.** inconclusive: 25.9 µM [inhibitor, single point]

**Q.** For S=C(c1ccc(-c2cc(Cl)ccc2Cl)o1)N1CCCCC1, which “activity change, negative = inhibition” value is on record?
**A.** inactive: 21%

**Q.** For Cc1cccc(Cl)c1NC(=O)N1CCCN(c2nc3ccc(Cl)cc3s2)CC1, which “activity change, negative = inhibition” value is on record?
**A.** inactive: 7.19%

**Q.** Which Potency does the source give for COCC(=O)n1nc(-c2ccccc2)nc1NCc1ccccc1 here?
**A.** inconclusive: 16.4 µM [activator, partial curve]

**Q.** Which Potency does the source give for Cn1nnnc1SCC(=O)Nc1ccc(Cl)c(S(=O)(=O)N2CCOCC2)c1 here?
**A.** inconclusive: 32.6 µM [inhibitor, single point]

**Q.** For COc1cccc(Nc2nc3cc(OC)ccc3cc2C#N)c1, which Potency is on record?
**A.** inconclusive: 32.6 µM [inhibitor, partial curve, poor fit]

**Q.** For N#CC(C(=O)c1ccc(S(=O)(=O)N2CCCCCC2)cc1)c1nc2ccccc2[nH]1 (stereo unspecified), which Potency is on record?
**A.** inconclusive: 29.1 µM [inhibitor, single point]

**Q.** Which Potency does the source give for CCn1c(C)cc(/C=C2/NC(=O)N(CC(=O)Nc3cccc(C)c3)C2=O)c1C here?
**A.** inconclusive: 32.6 µM [activator, partial curve, poor fit]

**Q.** Which “activity change, negative = inhibition” value does the source give for COc1cc(/C=C(\NC(=O)c2ccccc2)C(=O)NCCO)c([N+](=O)[O-])cc1OC here?
**A.** inactive: 1.39%

**Q.** Which “activity change, negative = inhibition” value does the source give for CCN(CC)C(=O)[C@H]1CC(CC(=O)NCCN2CCOCC2)C(=O)N2CCc3c([nH]c4ccccc34)[C@]12C (stereo partly specified) here?
**A.** inactive: 7.7%

**Q.** With C=CCOc1ccc(/C=C2\SC(N)=NC2=O)cc1OC as the compound, how does the Potency read?
**A.** inconclusive: 18.3 µM [activator, single point]

**Q.** Which “activity change, negative = inhibition” value does the source give for Cc1ccc(NC(=O)CCc2nnc3ccc(NCc4ccco4)nn23)cc1F here?
**A.** inactive: 4.43%

**Q.** With COC(=O)[C@]1(C)N[C@H](c2ccc(-c3cccc(Cl)c3)cc2)[C@@H]2C(=O)N(C)C(=O)[C@@H]21 as the compound, how does the “activity change, negative = inhibition” value read?
**A.** inactive: -1.99%

**Q.** Which Potency does the source give for O=C(Nc1cccc(Br)c1)c1ccc(CSc2ccccc2)cc1 here?
**A.** inconclusive: 23.1 µM [activator, single point]

**Q.** With COc1ccc(CC(=O)NNC2=Nc3cccc4cccc2c34)cc1OC as the compound, how does the Potency read?
**A.** inconclusive: 29.1 µM [inhibitor, single point]

**Q.** Which Potency does the source give for COC(=O)c1ccc(NC(=O)CN(C)S(=O)(=O)c2ccc(OC)c(C)c2)cc1 here?
**A.** inconclusive: 20.6 µM [inhibitor, single point]

**Q.** For CCOc1nc(SCCOc2ccc(C)cc2)nc(N(C)C)n1, which Potency is on record?
**A.** inconclusive: 29.1 µM [inhibitor, partial curve, poor fit]

**Q.** Which Potency does the source give for Clc1ccccc1-c1nnc(CNC2CC2)o1 here?
**A.** inconclusive: 23.1 µM [activator, partial curve, poor fit]

**Q.** For COc1ccc(/C=N/NC(=O)c2ccccc2)cc1OS(=O)(=O)c1ccccc1, which Potency is on record?
**A.** inconclusive: 18.4 µM [inhibitor, single point]

**Q.** With O=S(=O)(c1ccc(SCc2ccc(Br)cc2)nc1)N1CCCCC1 as the compound, how does the “activity change, negative = inhibition” value read?
**A.** inactive: -8.12%

**Q.** Which Potency does the source give for Cc1ccc(NC(=O)CNc2cccc(Br)c2)cc1S(=O)(=O)N1CCOCC1 here?
**A.** active: 23.1 µM

**Q.** With OCC(O)/C=N/Nc1nc2ccccc2s1 (stereo unspecified) as the compound, how does the Potency read?
**A.** inconclusive: 16.4 µM [activator, partial curve]

**Q.** Which “activity change, negative = inhibition” value does the source give for Cc1cc(C)nc(N(C#N)S(=O)(=O)c2ccc(Br)cc2)n1 here?
**A.** inactive: 6.16%

**Q.** Which “activity change, negative = inhibition” value does the source give for COCCNC(=O)c1cc(C(=O)CC(C)C)c[nH]1 here?
**A.** inactive: 4.46%

**Q.** With COc1ccc(N2CCN(CC(O)c3c[nH]c4ccc(OC)cc34)CC2C)cc1 (stereo unspecified) as the compound, how does the Potency read?
**A.** active: 23.1 µM

**Q.** For Cc1ccc(S(=O)(=O)NCCC2(C(C)C)CCOC(C)(C)C2)cc1 (stereo unspecified), which “activity change, negative = inhibition” value is on record?
**A.** inactive: -8.02%

**Q.** Which “activity change, negative = inhibition” value does the source give for CCOc1cc(/C=C2\CCn3c2nc2cc(Cl)ccc2c3=O)ccc1O here?
**A.** inactive: 13.8%

**Q.** For COc1ccc(NC(=O)N2CCN(c3cccc(C(F)(F)F)c3)CC2)cc1OC, which Potency is on record?
**A.** inconclusive: 18.4 µM [inhibitor, single point]

**Q.** With CCCC(=O)Nc1ccc(C2C(=O)c3ccccc3C2=O)cc1 as the compound, how does the Potency read?
**A.** inconclusive: 2.91 µM [activator, partial curve]

**Q.** With C=CCNC(=O)O/N=C/c1csc([N+](=O)[O-])c1 as the compound, how does the “activity change, negative = inhibition” value read?
**A.** inactive: 13.5%

**Q.** For COc1cc2c(cc1OC)CN(C(=O)c1ccncc1)CC2, which “activity change, negative = inhibition” value is on record?
**A.** inactive: 0.315%

**Q.** Which Potency does the source give for CCNC(=O)c1ccc(NS(=O)(=O)c2ccc3[nH]c(=O)[nH]c3c2)cc1 here?
**A.** inconclusive: 9.2 µM [activator, partial curve]

**Q.** With COc1ccc2cc(C(c3nnnn3C3CCCC3)N3CCc4ccccc4C3)c(=O)[nH]c2c1 (stereo unspecified) as the compound, how does the “activity change, negative = inhibition” value read?
**A.** inactive: -9.3%

**Q.** For CC(C)N=c1scc(-c2ccco2)n1/N=C/c1ccc(O)c(O)c1, which Potency is on record?
**A.** inconclusive: 20.6 µM [activator, partial curve]

**Q.** Which Potency does the source give for COc1ccc(-c2noc(COc3ccc(Cl)c(C)c3)n2)cc1 here?
**A.** inconclusive: 11.6 µM [activator, partial curve, poor fit]

**Q.** With O=C(C1CC(=O)N(c2ccc(F)cc2)C1)N1CCN(c2ccc(F)cc2)CC1 (stereo unspecified) as the compound, how does the Potency read?
**A.** inconclusive: 20.6 µM [inhibitor, partial curve, poor fit]

**Q.** For N#Cc1ccccc1S(=O)(=O)N1CCN(c2nc(-c3cccnc3)nc3ccccc23)CC1, which Potency is on record?
**A.** inconclusive: 7.3 µM [inhibitor, partial curve, poor fit]

**Q.** For Cc1nc(N(C)Cc2ccccc2)c2nnn(Cc3ccccc3)c2n1, which Potency is on record?
**A.** inconclusive: 29.1 µM [inhibitor, single point]

**Q.** For CC(C)(C)OC(=O)NCc1ccc(NC(=O)c2nc[nH]c2C(=O)NCCCCNC(=O)c2[nH]cnc2C(=O)Nc2ccc(CNC(=O)OC(C)(C)C)cc2)cc1, which Potency is on record?
**A.** active: 0.92 µM

**Q.** With O=C(Nc1ccccc1)c1ccc(NC(=O)C2CC2)cc1 as the compound, how does the Potency read?
**A.** inconclusive: 11.6 µM [activator, partial curve]

**Q.** With COc1cc2c(cc1OC)[C@H](C)N(C(=O)COc1ccccc1)CC2 as the compound, how does the Potency read?
**A.** inconclusive: 16.4 µM [inhibitor, partial curve]

**Q.** For Nc1nc(Nc2ccccc2F)nc(N2CCCC2)c1[N+](=O)[O-], which Potency is on record?
**A.** inconclusive: 13 µM [activator, partial curve]

**Q.** For CS(=O)(=O)N(CC(=O)Nc1ccccc1C(=O)NCc1ccccc1)c1ccc2c(c1)OCCO2, which Potency is on record?
**A.** inconclusive: 16.4 µM [inhibitor, partial curve]

**Q.** Which Potency does the source give for CCOc1ccc2nc(NC(=O)c3ccccn3)sc2c1 here?
**A.** inconclusive: 0.517 µM [activator, full curve]

**Q.** For CCc1ccccc1NC(=O)CC(NCc1ccccc1)C(=O)O (stereo unspecified), which “activity change, negative = inhibition” value is on record?
**A.** inactive: 5.25%

**Q.** With CCCN(C(=O)c1cc(S(=O)(=O)N(C)c2ccc(OCC)cc2)ccc1C)C1CCS(=O)(=O)C1 (stereo unspecified) as the compound, how does the “activity change, negative = inhibition” value read?
**A.** inactive: 9.78%

**Q.** With O=C(Nc1ccc(N2CCCC2)cc1)c1ccc(Cl)cc1Cl as the compound, how does the Potency read?
**A.** inconclusive: 2.91 µM [activator, partial curve, poor fit]

**Q.** With COc1cccc(C2=NN(S(C)(=O)=O)C(c3cccs3)C2)c1 (stereo unspecified) as the compound, how does the Potency read?
**A.** inconclusive: 23.1 µM [activator, partial curve]

**Q.** For COc1ccc([C@@H]2[C@@H]3C(=O)N(C(C)(C)C)C(=O)[C@@H]3[C@]3(Cc4ccccc4)C(=O)N(c4ccc(Br)cc4)C(=O)N23)cc1, which “activity change, negative = inhibition” value is on record?
**A.** inactive: 11.1%

**Q.** For CCCN1C(=O)/C(=C/c2c(N3CCNC(=O)C3CC(=O)OCC)nc3c(C)cccn3c2=O)SC1=S (stereo unspecified), which Potency is on record?
**A.** active: 5.8 µM

**Q.** For COc1cc(OC)cc(C(=O)Nc2c(C)nn(-c3ccccc3)c2C)c1, which Potency is on record?
**A.** inconclusive: 29.1 µM [inhibitor, single point]

**Q.** With CCOC(=O)c1cc(-c2nnc(-c3ccc(Oc4ccccc4)cc3)o2)c(C)nc1C as the compound, how does the Potency read?
**A.** active: 23.1 µM

**Q.** With Cn1c(=O)[nH]c(=O)c2c1nc(N/N=C/c1ccncc1)n2Cc1ccc(F)cc1 as the compound, how does the Potency read?
**A.** inconclusive: 23.1 µM [activator, partial curve]

**Q.** With O=C(O)c1ccc(N=Nc2c(O)[nH]c3ccccc23)cc1 as the compound, how does the Potency read?
**A.** inconclusive: 0.82 µM [activator, partial curve]

**Q.** For Cc1ccc(Cn2ccnc2SCC(=O)NC2CCCC2)cc1, which Potency is on record?
**A.** inconclusive: 20.6 µM [inhibitor, single point]
